Results published in patent US12297164B2, “Benzidine compound and application thereof” (Guangzhou IMD therapeutics Co., Ltd., priority 2019, dated 2025).

Test system: Du145 (AR-negative prostate cancer)
Experiment: Cell-Titer GLO cell inhibition
Assay type: cell-based
Details: Homo sapiens, DU-145, 72 to 144 hours, ~ = estimate
Text: The inhibition curve was fitted by GraphPad Prism software to obtain IC50.

- IC50: 44.7 ± 0.93 µM
Structure (SMILES): CNC(=O)c1ccc(N2C(=S)N(c3ccc(C#N)c(C(F)(F)F)c3)C(=O)C2(C)C)cc1F [Enzalutamide]
